PubChem BioAssay AID1259290 | Sanger Institute | 2017
Screen: 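Kinases whose loss kills colorectal cancer cells alone or alongside targeted drugs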 (primary screen). Cells: human SNUC1 colorectal cancer cells. Knock-down reagent: siRNA pool against human genes. Conditions: anchor drugs BYL719 1 µM, cetuximab 5 µg/ml or trametinib 10 nM, or DMSO vehicle alone. Read-out: 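Cell viability relative to a non-targeting siRNA control, replicate-averaged, as robust z-score for knock-down alone, plus a synergy score for each anchor drug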. Direction: viability z-score, siRNA alone: higher = more viable cells; low values mean essential gene; viability vs control, siRNA alone: higher = more viable cells; synergy score with BYL719 and synergy score with Cetuximab: higher = stronger synthetic lethal effect with drug. Active means: 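a knock-down without drug scoring a robust z under -3 counts as essential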. Calls: active = essential: knock-down alone cut viability (z below -3); inactive = no clear viability loss with knock-down alone.
This is a random part of 794 reagents. 9 of all reagents (1.1%) count as active. 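Calls rest on knock-down alone, not drug synergy; synergy above 0.15 was grouped apart and does not affect calls.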 Viability is capped at 1. Further read-outs or replicates are left out here. The record does not give: the amount of reagent, the time to read-out.

no.	Target gene	PubChem SID	viability z-score, siRNA alone	viability vs control, siRNA alone	synergy score with BYL719	synergy score with Cetuximab	Call
1	TCF12	SID134311750	0.936	1	-0.198	-0.0447	inactive
2	CSNK1G3	SID152152817	0.64	0.973	-0.191	-0.0702	inactive
3	DCK	SID56479088	-2.82	0.662	-0.0941	0.0515	inactive
4	CREBBP	SID152156768	0.746	0.983	-0.15	0.018	inactive
5	SMAD2	SID152156776	-2.22	0.716	-0.306	-0.00545	inactive
6	EPHA4	SID152148822	-0.919	0.833	-0.0918	0.0712	inactive
7	ZAP70	SID56479064	0.936	1	-0.0733	-0.0447	inactive
8	EGFR	SID135620613	0.213	0.935	-0.156	0.118	inactive
9	WNK2	SID56479037	-0.505	0.87	-0.195	0.112	inactive
10	MARK4	SID56479022	0.549	0.965	-0.226	-0.0699	inactive
11	PKIA	SID56479258	0.936	1	-0.117	-0.0447	inactive
12	GSK3A	SID56478467	0.58	0.968	-0.155	0.0194	inactive
13	ERBB4	SID135620618	0.936	1	0.0215	0.148	inactive
14	CDK19	SID56478856	0.157	0.93	-0.15	0.105	inactive
15	PRKAA2	SID152151654	0.0633	0.921	-0.174	-0.0724	inactive
16	MAST4	SID135625002	0.203	0.934	-0.125	0.00741	inactive
17	DMPK	SID135620855	0.122	0.927	-0.139	0.121	inactive
18	MYLK4	SID152150692	0.187	0.932	-0.102	-0.109	inactive
19	PLK1	SID56478632	-5.6	0.411	-0.194	-0.13	active
20	SCYL3	SID56479033	0.398	0.951	-0.15	-0.0911	inactive
21	PCBP1	SID134316528	0.19	0.933	-0.238	-0.109	inactive
22	TSSK2	SID56479050	-0.243	0.894	0.00482	0.043	inactive
23	TK2	SID152153963	-0.727	0.85	-0.197	-0.0979	inactive
24	XYLB	SID152153831	0.667	0.976	-0.038	-0.0536	inactive
25	TTBK1	SID135620866	0.936	1	0.0333	-0.0266	inactive
26	STK35	SID135620978	-0.0417	0.912	-0.0738	0.0326	inactive
27	PKN1	SID56478783	0.936	1	-0.198	-0.0447	inactive
28	ILK	SID152151227	0.407	0.952	-0.174	-0.0902	inactive
29	ILK	SID152153406	0.936	1	-0.198	-0.00121	inactive
30	CSF1R	SID152152485	-0.644	0.858	0.0858	-0.119	inactive
31	TSSK6	SID152147466	0.3	0.943	-0.115	0.000352	inactive
32	RPS6KB2	SID152153683	-0.962	0.829	-0.132	0.0321	inactive
33	PRKCD	SID56478673	0.109	0.925	0.142	0.00363	inactive
34	LTK	SID135620624	-0.187	0.899	-0.0479	0.0667	inactive
35	PI4KB	SID135621252	0.118	0.926	-0.0583	-0.0543	inactive
36	PRAG1	SID152147410	0.936	1	-0.0424	0.0208	inactive
37	PFKM	SID56479129	0.936	1	-0.198	0.0472	inactive
38	NEK3	SID152154962	-1.48	0.782	-0.235	0.0464	inactive
39	NIM1K	SID56478948	-0.98	0.827	-0.0365	0.111	inactive
40	SRGAP3	SID152151814	0.585	0.968	-0.224	-0.0389	inactive
41	DCLK3	SID152149137	-0.392	0.88	0.048	0.137	inactive
42	EXOSC10	SID152152402	-0.997	0.826	0.0717	-0.0162	inactive
43	CDKL1	SID56478790	0.213	0.935	-0.212	-0.019	inactive
44	LIMK1	SID135621436	-0.275	0.891	-0.0829	0.0269	inactive
45	NUP98	SID152147776	-2.72	0.671	0.0562	0.084	inactive
46	SYK	SID56478554	0.817	0.989	-0.13	0.00211	inactive
47	MARK1	SID152146970	0.00368	0.916	0.104	0.103	inactive
48	CTNNB1	SID134309920	-3.37	0.612	-0.151	-0.215	active
49	CDKL5	SID135620888	0.402	0.952	-0.0491	0.0266	inactive
50	PIK3R4	SID135620923	0.66	0.975	-0.218	0.0312	inactive
